Literature values in patent US4749717A, “Dopamine-beta-hydroxylase inhibitors” (SmithKline Beckman Corporation, priority 1987, dated 1988).
For at least one compound, name, drawing or mass did not settle the structure.

Target: T1, DBH (dopamine-β-hydroxylase) (Homo sapiens, UniProt P09172)
T1 sequence (P09172 1-617): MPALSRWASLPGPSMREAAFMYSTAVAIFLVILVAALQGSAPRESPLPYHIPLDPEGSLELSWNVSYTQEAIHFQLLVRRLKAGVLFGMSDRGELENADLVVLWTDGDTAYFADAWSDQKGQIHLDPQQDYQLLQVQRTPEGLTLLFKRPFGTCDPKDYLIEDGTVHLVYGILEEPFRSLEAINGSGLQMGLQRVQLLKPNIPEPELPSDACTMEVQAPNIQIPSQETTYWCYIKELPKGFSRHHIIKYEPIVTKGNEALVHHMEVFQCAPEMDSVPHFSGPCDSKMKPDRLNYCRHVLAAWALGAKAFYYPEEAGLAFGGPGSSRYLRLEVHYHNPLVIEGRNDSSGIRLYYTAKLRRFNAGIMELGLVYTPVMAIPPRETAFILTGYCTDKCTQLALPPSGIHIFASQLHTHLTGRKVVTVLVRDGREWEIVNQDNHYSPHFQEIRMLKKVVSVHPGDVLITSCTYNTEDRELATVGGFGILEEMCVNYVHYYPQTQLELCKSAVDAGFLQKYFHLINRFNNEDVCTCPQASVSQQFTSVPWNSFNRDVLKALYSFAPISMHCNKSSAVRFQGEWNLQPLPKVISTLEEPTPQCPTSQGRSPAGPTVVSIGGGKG
Conditions: Runti et al.; cited from earlier work

O=C(O)c1ccc(-c2ccccc2)cn1 [phenylpicolinic acid]
inhibitory activity relative to fusaric acid: twice the inhibitory activity of fusaric acid
